Values from PubChem BioAssay AID686943 (Drosophila RNAi Screening Center, 2013)
The screen tested about 23,000 reagents; below is an unselected part of those that have a named target and a result. 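Extra replicates exist only for a retested subset of genes; insulin dose and duration not given; both raised and lowered dpERK matter.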 Not stated in the record: the amount of reagent, the time to read-out.

- Test: 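Fly genes whose loss alters ERK activation after insulin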 (primary screen)
- System: Drosophila S2R+ haemocyte-like cells expressing YFP-tagged ERK (Rolled)
- Knock-down reagent: long dsRNA against Drosophila genes
- Treatment: insulin stimulation versus unstimulated cells; dose and duration not given
- Read-out: 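Antibody staining for doubly phosphorylated ERK divided by ERK-YFP signal, as plate z-scores, in insulin-treated and untreated cells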
- Reading the numbers: replicate 1, z-score of dpERK with insulin and replicate 2, z-score of dpERK with insulin: higher = more active ERK per ERK-YFP after insulin; replicate 1, z-score of dpERK under basal conditions: higher = more basal active ERK per ERK-YFP; replicate 1, z-score of ERK-YFP with insulin: higher = more YFP-tagged ERK signal

gene	dsRNA	replicate 1, z-score of dpERK with insulin	replicate 2, z-score of dpERK with insulin	replicate 1, z-score of dpERK under basal conditions	replicate 1, z-score of ERK-YFP with insulin
CG3356	DRSC04358	0.48	0.69	-0.18	0
dom	DRSC04558	-3.07	-3.73	-2.86	3.71
dom	DRSC04559	-0.51	-0.16	-1.12	1.37
CG10948	DRSC09806	0.05	-0.11	0.63	-0.14
Skp2	DRSC12329	0.48	-0.28	-0.75	1.28
CG30270	DRSC22890	0.72	-3.98	1.48	-1.29
CG13998	DRSC02330	-0.04	-0.08	-0.25	-0.25
CG15403	DRSC00417	0.03	-0.26	-1.14	0.6
mah	DRSC14645	-0.14	-1.09	2.32	0.45
CG18788	DRSC02697	0.94	-0.1	-0.04	-0.07
nito	DRSC05943	0.75	1.8	2.43	-1.86
Cpr78Cc	DRSC11846	-0.05	0.45	-1.96	0.58
Diap2	DRSC07444	0.82	0.52	-0.73	0.08
CG17344	DRSC02607	-0.19	-1.98	0.21	-0.43
CG11357	DRSC08183	1.31	-0.44	-0.63	-0.78
Cdc16	DRSC16920	-0.24	-0.16	0.39	-0.46
dpr13	DRSC06160	-0.29	-1.04	-0.16	0.13
dpr13	DRSC06464	0.15	-0.21	1.84	0.38
daed	DRSC00299	-0.49	0.05	0.25	-0.3
CG17738	DRSC15257	-0.2	0.66	0.82	0.23
Cpr12A	DRSC19722	1.03	0.27	0.11	-0.01
lili	DRSC14143	-0.04	0.26	0.08	-0.84
CG17107	DRSC02575	0.51	1.29	1.21	0.69
CG17107	DRSC22627	0.97	0.46	-0.05	-1.4
CG2121	DRSC06819	0.62	-0.02	0.34	-0.04
CG2121	DRSC06820	1.25	0.79	-0.19	-0.12

The list goes on; the last 3 above are carried over.
gene	dsRNA	replicate 1, z-score of dpERK with insulin	replicate 2, z-score of dpERK with insulin	replicate 1, z-score of dpERK under basal conditions	replicate 1, z-score of ERK-YFP with insulin
CG17107	DRSC22627	0.97	0.46	-0.05	-1.4
CG2121	DRSC06819	0.62	-0.02	0.34	-0.04
CG2121	DRSC06820	1.25	0.79	-0.19	-0.12
Or65c	DRSC21312	0.35	1.5	1.8	0.32
CG1271	DRSC08290	-0.1	-0.32	-0.76	0.27
Pex14	DRSC11754	0.72	0.31	0.22	-0.36
Dnaaf3	DRSC06684	0	0.25	0.26	0.34
Gr5a	DRSC18085	0.66	1.25	-0.02	1.53
RpL15	DRSC20963	-2.76	2.55	-1.3	-4.15
CG40498	DRSC07786	-0.03	-0.1	-1.36	-0.14
CG13616	DRSC14619	-0.41	0	0.57	0.36
CG7916	DRSC01901	0.76	-0.49	0.92	-0.05
mal	DRSC20581	0.72	-0.11	-0.44	0.21
CG10651	DRSC02086	0.31	-0.66	0.5	0.57
CG31371	DRSC15079	0.28	0	0.3	0.14
Psf1	DRSC08638	0.15	0.89	1.85	-0.15
CG5653	DRSC10534	0.95	0.62	0.78	-0.38
CG43123	DRSC05049	0.06	0.15	1.1	0.79
CG2921	DRSC04324	0.45	0.37	0.27	0.17
ms(3)76Ba	DRSC10091	0.58	0.29	-0.48	-0.27
pic	DRSC16639	-2.24	-2.04	-1.39	3.34
GstE7	DRSC06677	-0.44	-0.03	-0.87	0.54
CG13067	DRSC09950	-0.52	-0.49	0.02	0.26
RpL17	DRSC18293	-2.59	-0.56	-1.25	-2.84
rho-6	DRSC02588	0.04	0.45	0.1	0.77
CG33914	DRSC05033	-0.3	-0.28	-0.43	-0.1
CG33914	DRSC05034	0.01	-0.14	-0.57	-0.09
Coop	DRSC06604	0.05	0.97	-0.12	0.27
roh	DRSC04003	-0.2	-2.2	-0.5	1.2
Polr2C	DRSC03415	3.07	2.54	-2.77	-3.16
Ldsdh1	DRSC18219	0.3	0.51	0.88	0.52
CG31680	DRSC21878	-1.04	-0.41	-0.46	0.3
CG6686	DRSC02979	3.45	3.75	-1.24	0.2
CG32452	DRSC11581	0.83	0.82	-0.85	0.18
CG32452	DRSC22250	0.64	0.27	-1.09	-0.27
